Test results as given in patent publication EP4410284A1, “COMPOUND AND METHOD FOR THE TREATMENT OF ZELLWEGER SPECTRUM DISORDER” (Apteeus, priority 2023, dated 2024).

Experiments:
PEX405 cells = assay: Catalase import immunofluorescence, high-content screening (% importing cells); type: cell-based, human; conditions: 3 days
GM16513 cells = assay: as above; type: cell-based, human; conditions: 3 days

In the case of Cc1ccc(C(=O)NCCCCCC(=O)Nc2ccccc2N)cc1 [RG2833], the “% Importing cells” value (PEX405 cells; 1.3 µM) is reported as 5%, the “% Importing cells” value (PEX405 cells; 10 µM) is reported as 9% and the “% Importing cells” value (GM16513 cells; 1.3 µM) is reported as 17%. The “% Importing cells” value (GM16513 cells; 10 µM) was 43%.
